Results taken from US20210253718A1, “FRIZZLED5 PROTEIN-BINDING AGENTS” (Modmab Therapeutics Corporation, priority 2016, published 2021).
Positions count from the first letter of the chain named. Results are given in words; binding and its absence hold for the method and conditions named. Some results given as binding are weak or reduced against the parent protein; the word gives no strength. Sequences can lack the tags named with a protein. Values belong to the binder of their own block, whether it stands above or below them.

Experiments:
[1] = biological target: T1, FZD8-Fc (UniProt Q9H461); experiment: SPR
T1 sequence (looked up): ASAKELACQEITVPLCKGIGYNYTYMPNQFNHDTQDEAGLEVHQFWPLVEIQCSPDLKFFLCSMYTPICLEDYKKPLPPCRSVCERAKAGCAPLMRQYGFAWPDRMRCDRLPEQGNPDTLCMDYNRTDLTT

[2] = biological target: T1, FZD8-Fc; experiment: SPR, Frizzled-Fc chimera

binding [1]: binds
B1: IgG-2910 (antibody, V domains shown)
VH: EVQLVESGGGLVQPGGSLRLSCAASGFNISYSYMHWVRQAPGKGLEWVASIYSSSSSTSYADSVKGRFTISADTSKNTAYLQMNSLRAEDTAVYYCARGAMDYWGQGTLVTVSS
VL: DIQMTQSPSSLSASVGDRVTITCRASQSVSSAVAWYQQKPGKAPKLLIYSASSLYSGVPSRFSGSRSGTDFTLTISSLQPEDFATYYCQQWYGSHLITFGQGTKVEIK

binding [1]: binds
B2: IgG-2920 (antibody, V domains shown)
VH: B1 VH with S32Y, M34I, S53P, S56G, A100G
VL: B1 VL with Y92F, G93A, S94G, H95A

binding [2]: binds
binding [1]: binds
B3: IgG-2929 (antibody, V domains shown)
VH: B1 VH with S32Y, M34I, S53P
VL: DIQMTQSPSSLSASVGDRVTITCRASQSVSSAVAWYQQKPGKAPKLLIYSASSLYSGVPSRFSGSRSGTDFTLTISSLQPEDFATYYCQQWYSSYGLITFGQGTKVEIK

binding [1]: binds
B4: IgG-2921 (antibody, V domains shown)
VH: B1 VH with S32Y, M34I, S53P, S56G
VL: B1 VL with G93A, S94G, H95S

binding [1]: binds
B5: IgG-2919 (antibody, V domains shown)
VH: B1 VH with M34I, S56G, M101I
VL: DIQMTQSPSSLSASVGDRVTITCRASQSVSSAVAWYQQKPGKAPKLLIYSASSLYSGVPSRFSGSRSGTDFTLTISSLQPEDFATYYCQQWYSSGHVLITFGQGTKVEIKR
